# Data from PMC6379987.
# Sequences of proteins named here, by UniProt entry; tags and fusion partners are left off.
# UniProt Q62120: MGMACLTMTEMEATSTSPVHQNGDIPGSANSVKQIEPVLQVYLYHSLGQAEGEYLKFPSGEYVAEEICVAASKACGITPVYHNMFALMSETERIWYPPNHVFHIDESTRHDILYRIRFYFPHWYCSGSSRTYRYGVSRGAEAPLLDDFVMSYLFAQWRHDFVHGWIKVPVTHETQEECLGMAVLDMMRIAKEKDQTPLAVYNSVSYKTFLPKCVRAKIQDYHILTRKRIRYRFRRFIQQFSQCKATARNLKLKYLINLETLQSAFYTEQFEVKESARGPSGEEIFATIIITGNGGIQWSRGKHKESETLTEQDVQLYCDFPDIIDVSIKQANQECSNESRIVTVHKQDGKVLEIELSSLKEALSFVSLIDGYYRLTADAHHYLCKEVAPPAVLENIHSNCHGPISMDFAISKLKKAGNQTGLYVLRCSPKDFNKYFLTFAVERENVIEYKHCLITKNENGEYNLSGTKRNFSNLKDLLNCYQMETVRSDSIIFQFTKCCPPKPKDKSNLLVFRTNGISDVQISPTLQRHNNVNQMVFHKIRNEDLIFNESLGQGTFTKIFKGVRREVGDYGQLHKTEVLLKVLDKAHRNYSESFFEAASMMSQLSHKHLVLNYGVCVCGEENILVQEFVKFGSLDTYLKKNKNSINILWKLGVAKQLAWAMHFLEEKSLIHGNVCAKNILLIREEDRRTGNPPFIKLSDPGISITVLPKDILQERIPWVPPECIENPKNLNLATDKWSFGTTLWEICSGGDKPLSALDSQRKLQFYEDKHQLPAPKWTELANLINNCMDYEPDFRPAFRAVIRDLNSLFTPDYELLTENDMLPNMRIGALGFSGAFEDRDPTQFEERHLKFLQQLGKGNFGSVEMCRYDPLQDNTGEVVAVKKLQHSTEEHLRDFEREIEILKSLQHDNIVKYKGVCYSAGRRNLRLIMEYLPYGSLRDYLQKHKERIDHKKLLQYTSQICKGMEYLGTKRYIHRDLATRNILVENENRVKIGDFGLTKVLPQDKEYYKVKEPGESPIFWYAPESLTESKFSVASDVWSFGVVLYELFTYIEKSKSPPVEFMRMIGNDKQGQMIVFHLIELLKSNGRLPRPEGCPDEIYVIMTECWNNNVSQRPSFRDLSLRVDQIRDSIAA
# Results are given in words; binding and its absence hold for the method and conditions named. In cells and extracts the contact can be indirect. Some binding calls cover weakened binding; strength is not graded here.
# Columns and labels:
# mJAK2 wildtype = mJAK2 wildtype (UniProt Q62120); assay: co-IP; HEK293T transfected with HA-PDGFRβ and mJAK2 wildtype or kinase dead, 24 h, then MG132, pepstatin and leupeptin for 4 h; lysed in IP buffer (50 mM Tris-HCl pH 7.4, 300 mM NaCl, 5 mM EDTA, 1% Nonidet P40); immunoprecipitated with JAK2-specific antibody overnight at 4 °C, Protein A/G Dynabeads; western blot
# HA-tagged PDGFRβ = HA-tagged PDGFRβ (UniProt P09619); assay: co-IP; HEK293T transfected with HA-PDGFRβ and mJAK2 wildtype or kinase dead, 24 h, then MG132, pepstatin and leupeptin for 4 h; lysed in IP buffer (50 mM Tris-HCl pH 7.4, 300 mM NaCl, 5 mM EDTA, 1% Nonidet P40); immunoprecipitated with HA-specific antibody overnight at 4 °C, Protein A/G Dynabeads; western blot
Substance,binding (mJAK2 wildtype),binding (HA-tagged PDGFRβ)
HA-tagged PDGFRβ (from UniProt P09619 33-1106) (receptor),binds,
mJAK2 wildtype (from UniProt Q62120 1-1132) (enzyme),,binds
